Data published in PubChem BioAssay AID2685 (National Center for Advancing Translational Sciences (NCATS), 2010).
Some of the results follow. Shown are side measurements of this screen, not its main read-out; they come without a call. Most of these compounds were active or inconclusive in the main read-out, so they are no random draw. Potencies come from curve fits of mixed quality, noted in brackets.

Experiment: qHTS Assay for Lipid Storage Modulators in Drosophila S3 Cells;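 on cell number change: cells counted by Cell Tracker Red CMTPX staining in the red channel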
Details: BODIPY lipid droplet fluorescence, 18-24 h; for cell number change: measured here: cell count max response, cells fed with added oleic acid
How it was run: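 Drosophila S3 cells got compounds at several concentrations plus oleic acid (400 uM solution). Laser-scanning cytometry with 488 nm excitation read lipid droplets at 500-530 nm and cells at 575-640 nm. Percent activity was relative to 20 uM Triacsin C.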

[1] = measured here: lipid fluorescence (Fed channel) AC50, cells fed with added oleic acid
[2] = measured here: cell number channel AC50, cells fed with added oleic acid

In the case of `CCc1nn2c(=O)cc(CSCC(=O)Nc3ccccc3Cl)nc2s1`, the cell number change is reported as 2.36%.
With `COC(=O)c1sc(NC(=O)CSc2nc3cccnc3n2C)nc1C` the cell number change was 8.97% and the AC50 [1] was 29.1 µM [falling, partial curve, poor fit].
In the case of `Cc1nccn1CC(=O)N/N=C/c1cc(Br)cs1`, the cell number change is reported as 13% and the AC50 [1] is reported as 14.6 µM [rising, single point].
With `O=C(NCc1ccc(Cl)cc1)C(=O)NCC1OCCCN1S(=O)(=O)c1cccs1` (configuration not stated) the cell number change was 19.4% and the AC50 [1] was 25.9 µM [rising, single point].
In the case of `CCOP(=O)(OCC)c1cccc(P(=O)(c2ccccc2)c2ccccc2)c1O`, the cell number change is reported as -41.4% and the AC50 [1] is reported as 0.116 µM [rising, full curve, poor fit].
For `CCC/C=C(\CCC)C(NS(=O)(=O)c1cccc2cccnc12)c1ccc(C(=O)OC)cc1` (configuration not stated), the cell number change was -6.75% and the AC50 [1] was 7.31 µM [rising, partial curve].
For `Cc1ccc(S(=O)(=O)NNC(=S)NC(=O)c2ccc([N+](=O)[O-])cc2)cc1`, the cell number change was 9.9%, the AC50 [2] was 0.82 µM [falling, single point] and the AC50 [1] was 3.66 µM [falling, full curve, poor fit].
In the case of `CCc1nc2cc(C)nn2c2nc3ccccc3n12`, the cell number change is reported as -15.5%.
In the case of `CCN1CCCC1CNC(=O)c1ccc(N2CCCC2=O)cc1` (configuration not stated), the cell number change is reported as -14.3% and the AC50 [1] is reported as 0.00517 µM [falling, full curve, poor fit].
In the case of `Cc1sccc1/C=N/NC(=O)c1cccc2ccccc12`, the cell number change is reported as 14% and the AC50 [1] is reported as 14.6 µM [rising, partial curve].
With `CCn1c(SCC(=O)NC(=O)Nc2ccc3c(c2)OCCO3)nnc1-c1cccs1` the AC50 [2] was 0.366 µM [rising, full curve] and the AC50 [1] was 6.51 µM [rising, partial curve, poor fit].
For `CCOc1ccc(N2CC(C(=O)NCCN3C(=O)S/C(=C\c4cccnc4)C3=O)CC2=O)cc1` (configuration not stated), the cell number change was 23.8% and the AC50 [1] was 6.51 µM [falling, single point].
Work on `Cc1ccc(NS(=O)(=O)c2cccc(C(=O)n3ncc(C#N)c3N)c2)c(C)c1` yielded a cell number change of -9.49%.
In the case of `COc1cc(OC)cc(-c2nc3ccccc3c(=O)n2OC(=O)c2ccccc2C)c1`, the cell number change is reported as -27% and the AC50 [1] is reported as 20.6 µM [falling, partial curve].
For `CCCS(=O)(=O)c1c(S(=O)(=O)CCC)c2c3ccccc3ccn2c1C(N)=O`, the cell number change was 1.28% and the AC50 [1] was 6.51 µM [rising, single point].
In the case of `CC(Cc1cccs1)NC(=O)Nc1ccc(F)cc1` (configuration not stated), the cell number change is reported as -15% and the AC50 [1] is reported as 0.58 µM [falling, single point].
`CN(C)C(CNc1ccc(S(C)(=O)=O)cc1[N+](=O)[O-])c1ccccc1` (configuration not stated) showed a cell number change of 12.9%.
With `COc1ccc(-c2nn(CCC#N)cc2C(=O)Nc2cccc(C(=O)O)c2)cc1[N+](=O)[O-]` the cell number change was 30.8%, the AC50 [2] was 16.4 µM [rising, partial curve] and the AC50 [1] was 1.3 µM [falling, partial curve, poor fit].
For `Cc1cc2cc(CCNC(=O)CC(C)(C)C)c(=O)[nH]c2cc1C`, the cell number change was 130% and the AC50 [2] was 13 µM [rising, partial curve].
For `CC(=O)c1c(C)[nH]c(C(=O)OCC(=O)Nc2cc(C)on2)c1C`, the cell number change was 11.9% and the AC50 [1] was 0.461 µM [rising, full curve].
For `CC(C)C[C@H]1CN=C(Nc2ccccc2)N1CC1CCC(C(C)(C)C)CC1` (some centres not stated), the cell number change was -1.75% and the AC50 [1] was 0.411 µM [rising, partial curve, poor fit].
In the case of `CC(=O)Nc1ccc2[nH]c3ccccc3c2c1`, the cell number change is reported as 6.03% and the AC50 [1] is reported as 0.164 µM [falling, full curve, poor fit].
For `O=C(Nc1ccc(F)cc1)C(c1ccccc1)N1CCN(CC(=O)N2CCCC2)CC1` (configuration not stated), the cell number change was 2.77% and the AC50 [1] was 18.4 µM [rising, partial curve].
For `CC(C)Oc1cccc(C(=O)C2CCCN(C(=O)c3ccoc3)C2)c1` (configuration not stated), the cell number change was -7.96% and the AC50 [1] was 32.6 µM [falling, single point].
With `O=C(O)CCc1nn2c3ccccc3nc2n(CCN2CCCCC2)c1=O` the cell number change was 26.6% and the AC50 [1] was 11.6 µM [rising, partial curve, poor fit].
With `Cc1cc2nc(C)n3c4ccccc4nc3n2n1` the cell number change was -50.2% and the AC50 [2] was 29.1 µM [falling, single point].
In the case of `CCOc1ccc(S(=O)(=O)Nc2ccc(C(=O)N3CCC3)cc2)cc1`, the cell number change is reported as 39.2%, the AC50 [2] is reported as 25.9 µM [rising, single point] and the AC50 [1] is reported as 18.4 µM [rising, single point].
In the case of `O=C(NC(=S)Nc1ccc2oc(=O)ccc2c1)c1cccc(F)c1`, the cell number change is reported as 4.84% and the AC50 [1] is reported as 2.31 µM [falling, full curve, poor fit].
For `C[C@H]1CN=C(Nc2ccccc2)N1CCCC1CCCC1`, the cell number change was 37.1% and the AC50 [2] was 1.84 µM [rising, full curve].
